From the supplement of paper PMC12823440, “Inhibitors supercharge kinase turnover through native proteolytic circuits” (Nature, 2025)
Where a name gives a salt, the structure may show the parent alone. The list shows a part of the results. Hit calls seldom repeat between salt and free forms of one compound.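 Kinases were expressed as nanoluciferase fusions in K562 cells and luminescence was read every 4 h between 2 and 18 h as percent of control, DMSO set to 100% and a positive control to 0%. A time point counts as decreased when the signal drops significantly (2 sigma). The hit call is the authors' own, does not follow from the count of time points alone, and its rule is not shown.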

Amino acid sequences for entries named in this document (tags omitted). A change or cut given only in a name is not applied to a line headed by its entry.
UniProt Q13546: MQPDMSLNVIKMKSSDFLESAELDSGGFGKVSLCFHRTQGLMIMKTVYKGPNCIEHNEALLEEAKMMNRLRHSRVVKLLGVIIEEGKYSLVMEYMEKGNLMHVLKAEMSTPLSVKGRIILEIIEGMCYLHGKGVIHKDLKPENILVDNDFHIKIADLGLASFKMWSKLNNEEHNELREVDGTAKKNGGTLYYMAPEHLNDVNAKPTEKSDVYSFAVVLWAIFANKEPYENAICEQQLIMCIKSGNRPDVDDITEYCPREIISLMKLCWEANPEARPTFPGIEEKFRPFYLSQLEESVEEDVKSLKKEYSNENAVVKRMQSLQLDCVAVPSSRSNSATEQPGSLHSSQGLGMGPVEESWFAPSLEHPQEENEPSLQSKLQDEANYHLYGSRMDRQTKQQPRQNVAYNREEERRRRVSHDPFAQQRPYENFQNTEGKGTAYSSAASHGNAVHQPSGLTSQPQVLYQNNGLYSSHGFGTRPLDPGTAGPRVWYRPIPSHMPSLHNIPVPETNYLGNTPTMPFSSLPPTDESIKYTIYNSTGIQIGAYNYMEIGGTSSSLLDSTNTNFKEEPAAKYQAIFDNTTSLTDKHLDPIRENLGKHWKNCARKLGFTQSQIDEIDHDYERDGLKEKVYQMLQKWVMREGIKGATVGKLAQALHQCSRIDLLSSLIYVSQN
UniProt Q01974, whole entry: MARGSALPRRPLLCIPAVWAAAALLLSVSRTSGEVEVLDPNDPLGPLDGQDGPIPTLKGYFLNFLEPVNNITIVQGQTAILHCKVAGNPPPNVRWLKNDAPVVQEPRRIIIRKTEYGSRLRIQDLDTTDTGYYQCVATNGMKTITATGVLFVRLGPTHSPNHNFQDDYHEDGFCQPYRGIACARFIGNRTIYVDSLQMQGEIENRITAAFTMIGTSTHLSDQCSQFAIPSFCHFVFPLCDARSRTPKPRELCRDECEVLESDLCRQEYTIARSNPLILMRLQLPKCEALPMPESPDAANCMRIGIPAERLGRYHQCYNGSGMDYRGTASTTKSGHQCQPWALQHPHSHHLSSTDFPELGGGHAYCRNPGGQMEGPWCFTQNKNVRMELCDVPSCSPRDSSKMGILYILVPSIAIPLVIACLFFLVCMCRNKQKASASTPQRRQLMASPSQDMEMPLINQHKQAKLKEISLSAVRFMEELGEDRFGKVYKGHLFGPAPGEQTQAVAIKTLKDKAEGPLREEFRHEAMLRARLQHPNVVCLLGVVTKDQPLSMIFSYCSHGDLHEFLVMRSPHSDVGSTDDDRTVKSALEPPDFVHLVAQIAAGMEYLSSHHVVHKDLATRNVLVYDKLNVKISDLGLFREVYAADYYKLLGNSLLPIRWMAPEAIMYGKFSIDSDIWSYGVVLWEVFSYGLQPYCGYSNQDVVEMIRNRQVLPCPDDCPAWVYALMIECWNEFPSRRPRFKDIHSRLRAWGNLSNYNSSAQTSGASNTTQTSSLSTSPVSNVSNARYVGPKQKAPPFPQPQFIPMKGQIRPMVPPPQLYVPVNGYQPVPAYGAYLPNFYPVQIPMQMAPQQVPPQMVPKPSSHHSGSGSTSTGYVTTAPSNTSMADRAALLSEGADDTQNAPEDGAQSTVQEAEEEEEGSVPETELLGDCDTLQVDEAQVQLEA
UniProt Q9NYA1, whole entry: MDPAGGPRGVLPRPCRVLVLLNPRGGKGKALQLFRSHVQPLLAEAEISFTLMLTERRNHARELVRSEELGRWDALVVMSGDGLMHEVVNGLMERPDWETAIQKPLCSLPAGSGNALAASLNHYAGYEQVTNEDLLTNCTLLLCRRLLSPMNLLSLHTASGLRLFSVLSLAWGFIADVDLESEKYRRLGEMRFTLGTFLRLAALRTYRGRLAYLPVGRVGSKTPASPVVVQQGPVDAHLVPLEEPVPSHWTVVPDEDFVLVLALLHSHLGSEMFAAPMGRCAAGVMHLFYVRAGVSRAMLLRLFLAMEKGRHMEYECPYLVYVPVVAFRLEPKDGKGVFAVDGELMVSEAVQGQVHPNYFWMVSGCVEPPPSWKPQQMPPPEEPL
UniProt Q15208: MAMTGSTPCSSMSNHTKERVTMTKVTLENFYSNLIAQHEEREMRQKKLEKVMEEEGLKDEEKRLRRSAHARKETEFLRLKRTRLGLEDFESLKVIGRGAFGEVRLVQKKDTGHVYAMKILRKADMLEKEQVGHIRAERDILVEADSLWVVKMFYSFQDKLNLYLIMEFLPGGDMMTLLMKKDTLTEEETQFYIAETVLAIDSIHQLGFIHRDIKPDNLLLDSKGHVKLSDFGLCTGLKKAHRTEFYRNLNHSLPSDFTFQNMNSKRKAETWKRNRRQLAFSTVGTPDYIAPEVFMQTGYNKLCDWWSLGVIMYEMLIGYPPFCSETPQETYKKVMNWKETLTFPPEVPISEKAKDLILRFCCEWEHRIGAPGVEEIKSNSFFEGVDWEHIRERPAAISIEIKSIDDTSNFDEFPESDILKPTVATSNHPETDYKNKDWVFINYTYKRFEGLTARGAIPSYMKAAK
UniProt P29597: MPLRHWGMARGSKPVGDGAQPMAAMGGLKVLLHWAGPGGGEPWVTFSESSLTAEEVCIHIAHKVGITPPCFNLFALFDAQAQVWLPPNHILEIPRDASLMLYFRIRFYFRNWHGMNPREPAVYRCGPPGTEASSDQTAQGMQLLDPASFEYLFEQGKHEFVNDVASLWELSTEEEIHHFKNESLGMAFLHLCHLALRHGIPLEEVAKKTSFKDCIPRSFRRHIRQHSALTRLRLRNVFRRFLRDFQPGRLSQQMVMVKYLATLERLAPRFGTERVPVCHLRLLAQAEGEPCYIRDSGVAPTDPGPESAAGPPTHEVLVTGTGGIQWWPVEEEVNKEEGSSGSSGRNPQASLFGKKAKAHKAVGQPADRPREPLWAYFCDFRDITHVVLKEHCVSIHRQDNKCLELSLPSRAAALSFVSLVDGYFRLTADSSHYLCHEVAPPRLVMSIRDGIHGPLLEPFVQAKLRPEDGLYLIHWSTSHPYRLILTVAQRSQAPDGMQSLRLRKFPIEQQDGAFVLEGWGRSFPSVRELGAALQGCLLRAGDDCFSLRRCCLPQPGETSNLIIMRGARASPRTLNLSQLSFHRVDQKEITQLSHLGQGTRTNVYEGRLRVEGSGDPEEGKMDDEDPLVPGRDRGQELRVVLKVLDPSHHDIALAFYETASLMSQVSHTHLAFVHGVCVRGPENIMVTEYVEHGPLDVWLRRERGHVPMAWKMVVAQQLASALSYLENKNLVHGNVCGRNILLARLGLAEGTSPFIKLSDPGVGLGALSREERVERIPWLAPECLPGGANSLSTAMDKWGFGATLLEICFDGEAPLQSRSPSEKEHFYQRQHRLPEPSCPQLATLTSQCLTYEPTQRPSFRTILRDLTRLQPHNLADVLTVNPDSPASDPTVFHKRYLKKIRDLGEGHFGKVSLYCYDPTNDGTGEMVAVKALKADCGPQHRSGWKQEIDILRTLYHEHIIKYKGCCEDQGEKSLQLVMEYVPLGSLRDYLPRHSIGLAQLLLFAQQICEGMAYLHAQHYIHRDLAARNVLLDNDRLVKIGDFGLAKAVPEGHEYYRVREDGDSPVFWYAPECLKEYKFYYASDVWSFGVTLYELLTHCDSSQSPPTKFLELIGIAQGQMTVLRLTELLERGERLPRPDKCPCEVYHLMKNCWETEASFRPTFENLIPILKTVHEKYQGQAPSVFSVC
UniProt Q6PHR2: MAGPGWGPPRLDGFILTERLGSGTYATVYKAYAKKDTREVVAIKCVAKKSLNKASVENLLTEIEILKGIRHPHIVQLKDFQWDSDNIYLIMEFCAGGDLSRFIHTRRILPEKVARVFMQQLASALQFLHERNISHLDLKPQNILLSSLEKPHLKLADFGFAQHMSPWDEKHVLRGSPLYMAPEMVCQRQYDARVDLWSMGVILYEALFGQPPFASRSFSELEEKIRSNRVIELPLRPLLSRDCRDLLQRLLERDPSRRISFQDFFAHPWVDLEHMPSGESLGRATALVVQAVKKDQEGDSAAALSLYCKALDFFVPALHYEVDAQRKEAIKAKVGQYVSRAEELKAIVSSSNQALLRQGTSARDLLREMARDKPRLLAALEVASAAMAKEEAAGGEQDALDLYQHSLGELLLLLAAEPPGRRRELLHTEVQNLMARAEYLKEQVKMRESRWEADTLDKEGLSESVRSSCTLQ
UniProt P43403: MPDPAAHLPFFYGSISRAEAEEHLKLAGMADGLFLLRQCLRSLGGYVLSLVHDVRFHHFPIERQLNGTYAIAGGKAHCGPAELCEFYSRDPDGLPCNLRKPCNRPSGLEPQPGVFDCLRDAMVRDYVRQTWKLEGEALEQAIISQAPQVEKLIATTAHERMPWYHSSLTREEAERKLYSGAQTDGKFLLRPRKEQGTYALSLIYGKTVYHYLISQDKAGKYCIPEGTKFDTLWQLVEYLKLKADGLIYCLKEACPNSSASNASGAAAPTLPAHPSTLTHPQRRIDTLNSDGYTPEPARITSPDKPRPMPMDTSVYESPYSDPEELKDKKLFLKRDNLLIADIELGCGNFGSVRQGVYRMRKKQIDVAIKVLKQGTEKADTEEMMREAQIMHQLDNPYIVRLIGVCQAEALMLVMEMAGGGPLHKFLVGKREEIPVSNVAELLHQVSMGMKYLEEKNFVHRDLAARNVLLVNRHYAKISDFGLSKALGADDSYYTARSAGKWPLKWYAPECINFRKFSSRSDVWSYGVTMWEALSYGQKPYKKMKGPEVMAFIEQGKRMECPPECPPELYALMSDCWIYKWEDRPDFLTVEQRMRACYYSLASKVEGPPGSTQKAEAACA
UniProt P00519, whole entry: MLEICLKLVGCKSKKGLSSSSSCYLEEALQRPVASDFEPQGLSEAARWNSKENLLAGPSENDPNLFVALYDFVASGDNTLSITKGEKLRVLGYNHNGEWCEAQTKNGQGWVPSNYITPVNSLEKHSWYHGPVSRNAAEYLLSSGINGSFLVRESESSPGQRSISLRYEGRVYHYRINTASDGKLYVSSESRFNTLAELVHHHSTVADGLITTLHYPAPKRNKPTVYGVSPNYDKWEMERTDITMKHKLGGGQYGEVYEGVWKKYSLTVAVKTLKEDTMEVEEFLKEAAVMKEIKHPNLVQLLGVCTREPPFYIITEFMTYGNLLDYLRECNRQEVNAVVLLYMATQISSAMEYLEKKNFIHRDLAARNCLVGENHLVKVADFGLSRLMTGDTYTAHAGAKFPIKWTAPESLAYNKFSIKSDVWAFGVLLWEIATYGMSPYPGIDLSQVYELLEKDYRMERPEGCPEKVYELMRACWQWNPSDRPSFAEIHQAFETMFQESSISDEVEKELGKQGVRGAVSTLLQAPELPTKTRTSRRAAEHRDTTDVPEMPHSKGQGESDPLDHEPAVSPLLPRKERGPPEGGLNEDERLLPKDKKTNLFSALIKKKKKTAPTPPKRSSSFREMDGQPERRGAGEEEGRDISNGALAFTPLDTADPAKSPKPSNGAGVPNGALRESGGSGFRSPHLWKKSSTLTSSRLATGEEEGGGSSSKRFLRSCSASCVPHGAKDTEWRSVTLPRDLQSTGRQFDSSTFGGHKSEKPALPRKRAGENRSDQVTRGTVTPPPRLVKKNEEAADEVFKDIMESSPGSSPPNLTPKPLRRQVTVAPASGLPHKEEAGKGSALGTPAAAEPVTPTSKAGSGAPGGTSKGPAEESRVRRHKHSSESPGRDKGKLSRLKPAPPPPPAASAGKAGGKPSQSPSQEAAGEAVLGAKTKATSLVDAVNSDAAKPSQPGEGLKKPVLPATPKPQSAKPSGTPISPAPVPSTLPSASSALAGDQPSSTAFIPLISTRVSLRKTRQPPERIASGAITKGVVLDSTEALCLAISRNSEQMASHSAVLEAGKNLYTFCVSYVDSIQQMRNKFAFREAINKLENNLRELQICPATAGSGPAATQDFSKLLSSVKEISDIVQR
UniProt P31749: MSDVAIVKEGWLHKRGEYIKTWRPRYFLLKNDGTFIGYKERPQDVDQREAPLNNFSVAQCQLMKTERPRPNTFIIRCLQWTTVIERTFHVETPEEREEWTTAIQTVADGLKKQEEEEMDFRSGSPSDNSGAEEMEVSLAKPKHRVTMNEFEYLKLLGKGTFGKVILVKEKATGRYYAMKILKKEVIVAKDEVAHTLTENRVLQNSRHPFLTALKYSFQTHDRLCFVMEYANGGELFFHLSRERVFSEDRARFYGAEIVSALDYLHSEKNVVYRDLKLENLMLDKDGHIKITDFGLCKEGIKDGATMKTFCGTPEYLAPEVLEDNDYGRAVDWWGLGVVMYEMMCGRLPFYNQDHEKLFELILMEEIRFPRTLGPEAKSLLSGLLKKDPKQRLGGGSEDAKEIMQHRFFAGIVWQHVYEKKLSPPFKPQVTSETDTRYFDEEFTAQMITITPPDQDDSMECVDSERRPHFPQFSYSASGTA

Assays:
Conditions in all cases: K562; 2-18 h
[1] = biological target: RET (UniProt P07949); experiment: kinase-Nluc reporter destabilization hit call (1 = scored as downregulated) (binary); higher = compound decreases kinase abundance
[2] = biological target: RET_M918T (clone: RET_mut) (UniProt P07949); experiment: as above
[3] = biological target: RIOK1 (UniProt Q9BRS2); experiment: as above
[4] = biological target: RIPK1 (UniProt Q13546); experiment: as above
[5] = biological target: RIPK2 (UniProt O43353); experiment: as above
[6] = biological target: ROR2 (UniProt Q01974); experiment: as above
[7] = biological target: RPS6KA1 (UniProt Q15418); experiment: as above
[8] = biological target: SPHK1 (UniProt Q9NYA1); experiment: as above
[9] = biological target: SRC (UniProt P12931); experiment: as above
[10] = biological target: STK24 (UniProt Q9Y6E0); experiment: as above
[11] = biological target: STK38 (UniProt Q15208); experiment: as above
[12] = biological target: SYK (UniProt P43405); experiment: as above
[13] = biological target: TEC (UniProt P42680); experiment: as above
[14] = biological target: TYK2 (UniProt P29597); experiment: as above
[15] = biological target: ULK3 (UniProt Q6PHR2); experiment: as above
[16] = biological target: YES1 (UniProt P07947); experiment: as above
[17] = biological target: ZAK (UniProt Q9NYL2); experiment: as above
[18] = biological target: ZAP70 (UniProt P43403); experiment: as above
[19] = biological target: ABL1 (UniProt P00519); experiment: number of time points (of 5) at which kinase-Nluc abundance scored as decreased, DMSO-normalised (count); higher = more persistent destabilization
[20] = biological target: AKT1 (UniProt P31749); experiment: as above

| SMILES | kinase-Nluc reporter destabilization hit call [1] | kinase-Nluc reporter destabilization hit call [2] | kinase-Nluc reporter destabilization hit call [3] | kinase-Nluc reporter destabilization hit call [4] | kinase-Nluc reporter destabilization hit call [5] | kinase-Nluc reporter destabilization hit call [6] | kinase-Nluc reporter destabilization hit call [7] | kinase-Nluc reporter destabilization hit call [8] | kinase-Nluc reporter destabilization hit call [9] | kinase-Nluc reporter destabilization hit call [10] | kinase-Nluc reporter destabilization hit call [11] | kinase-Nluc reporter destabilization hit call [12] | kinase-Nluc reporter destabilization hit call [13] | kinase-Nluc reporter destabilization hit call [14] | kinase-Nluc reporter destabilization hit call [15] | kinase-Nluc reporter destabilization hit call [16] | kinase-Nluc reporter destabilization hit call [17] | kinase-Nluc reporter destabilization hit call [18] | number of time points [19] | number of time points [20] |
| --- | --- | --- | --- | --- | --- | --- | --- | --- | --- | --- | --- | --- | --- | --- | --- | --- | --- | --- | --- | --- |
| Cc1ccc2cc(-c3c(C)ccc(C(=O)c4c(-c5ccccc5)n(C)n(-c5ccccc5)c4=O)c3N)ccc2n1 (2.5 µM) | inactive: 0 | inactive: 0 | inactive: 0 | inactive: 0 | inactive: 0 | inactive: 0 | inactive: 0 | inactive: 0 | inactive: 0 | inactive: 0 | inactive: 0 | inactive: 0 | inactive: 0 | inactive: 0 | inactive: 0 | inactive: 0 | inactive: 0 | inactive: 0 | 0 | 0 |
| COc1cc2nccc(Oc3ccc(NC(=O)NC4CC4)c(Cl)c3)c2cc1C(N)=O [Lenvatinib] (10 µM) | inactive: 0 | inactive: 0 | inactive: 0 | inactive: 0 | inactive: 0 | inactive: 0 | inactive: 0 | inactive: 0 | inactive: 0 | inactive: 0 | inactive: 0 | inactive: 0 | inactive: 0 | inactive: 0 | inactive: 0 | inactive: 0 | inactive: 0 | inactive: 0 | 0 | 0 |
| Oc1cc2c(cc1O)C(Cc1cccc3ccccc13)NCC2 (stereo not given) (10 µM) | inactive: 0 | inactive: 0 | inactive: 0 | inactive: 0 | inactive: 0 | inactive: 0 | inactive: 0 | inactive: 0 | inactive: 0 | inactive: 0 | inactive: 0 | inactive: 0 | inactive: 0 | inactive: 0 | inactive: 0 | inactive: 0 | inactive: 0 | inactive: 0 | 0 | 0 |
| C[C@@H]1COCCN1c1cc(C2([S@@](C)(=N)=O)CC2)nc(-c2ccnc3[nH]ccc23)n1 [(S)-Ceralasertib] (10 µM) | inactive: 0 | inactive: 0 | inactive: 0 | inactive: 0 | inactive: 0 | inactive: 0 | inactive: 0 | inactive: 0 | inactive: 0 | inactive: 0 | inactive: 0 | inactive: 0 | inactive: 0 | inactive: 0 | inactive: 0 | inactive: 0 | inactive: 0 | inactive: 0 | 0 | 0 |
| CCc1c(C(=O)NNC(=O)C(O)c2cc(F)cc(F)c2)ccc(O)c1C (stereo not given) (10 µM) | inactive: 0 | inactive: 0 | inactive: 0 | inactive: 0 | inactive: 0 | inactive: 0 | inactive: 0 | inactive: 0 | inactive: 0 | inactive: 0 | inactive: 0 | inactive: 0 | inactive: 0 | inactive: 0 | inactive: 0 | inactive: 0 | inactive: 0 | inactive: 0 | 0 | 0 |
| Nc1cc(C(F)(F)F)c(-c2cc(N3CCOCC3)nc(N3CCOCC3)n2)cn1 [Buparlisib (Hydrochloride)] (2.5 µM) | inactive: 0 | inactive: 0 | inactive: 0 | inactive: 0 | inactive: 0 | inactive: 0 | inactive: 0 | inactive: 0 | inactive: 0 | inactive: 0 | inactive: 0 | inactive: 0 | inactive: 0 | inactive: 0 | inactive: 0 | inactive: 0 | inactive: 0 | inactive: 0 | 2 | 0 |
| O=C(CSC1=NCCN1)NC1CCCCCC1 [ICCB-19 (hydrochloride)] (2.5 µM) | inactive: 0 | inactive: 0 | inactive: 0 | inactive: 0 | inactive: 0 | inactive: 0 | inactive: 0 | inactive: 0 | inactive: 0 | inactive: 0 | inactive: 0 | inactive: 0 | inactive: 0 | inactive: 0 | inactive: 0 | inactive: 0 | inactive: 0 | inactive: 0 | 0 | 0 |
